# Data from the supplement of paper PMC12819154, “High-throughput peptide-centric local stability assay extends protein–ligand identification to membrane proteins, tissues and bacteria” (Nature Structural & Molecular Biology, 2025).
# Amino acid sequences for entries named in this document (tags omitted). A change or cut given only in a name is not applied to a line headed by its entry.
# UniProt Q61542, whole entry: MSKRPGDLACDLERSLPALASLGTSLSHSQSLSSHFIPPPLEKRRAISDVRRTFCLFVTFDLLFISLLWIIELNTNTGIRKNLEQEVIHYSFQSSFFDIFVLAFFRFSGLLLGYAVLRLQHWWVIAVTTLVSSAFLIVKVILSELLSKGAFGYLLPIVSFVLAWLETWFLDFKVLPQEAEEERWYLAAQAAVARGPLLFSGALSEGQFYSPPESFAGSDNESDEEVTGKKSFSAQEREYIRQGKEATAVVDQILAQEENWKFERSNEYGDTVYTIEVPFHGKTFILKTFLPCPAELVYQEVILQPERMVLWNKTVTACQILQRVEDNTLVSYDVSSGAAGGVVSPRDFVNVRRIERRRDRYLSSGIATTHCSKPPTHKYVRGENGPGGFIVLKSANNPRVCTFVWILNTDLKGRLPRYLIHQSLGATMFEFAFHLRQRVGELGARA
# UniProt Q61990, whole entry: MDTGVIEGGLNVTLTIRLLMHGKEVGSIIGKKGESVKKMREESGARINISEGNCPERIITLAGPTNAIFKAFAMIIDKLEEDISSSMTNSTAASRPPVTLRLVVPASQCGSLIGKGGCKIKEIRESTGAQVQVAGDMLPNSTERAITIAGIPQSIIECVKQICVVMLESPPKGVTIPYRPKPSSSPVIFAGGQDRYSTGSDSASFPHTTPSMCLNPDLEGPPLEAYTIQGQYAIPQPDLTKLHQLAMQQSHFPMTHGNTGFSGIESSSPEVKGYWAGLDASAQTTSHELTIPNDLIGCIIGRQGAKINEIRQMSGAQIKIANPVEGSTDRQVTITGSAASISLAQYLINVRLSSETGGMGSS
# UniProt Q64345: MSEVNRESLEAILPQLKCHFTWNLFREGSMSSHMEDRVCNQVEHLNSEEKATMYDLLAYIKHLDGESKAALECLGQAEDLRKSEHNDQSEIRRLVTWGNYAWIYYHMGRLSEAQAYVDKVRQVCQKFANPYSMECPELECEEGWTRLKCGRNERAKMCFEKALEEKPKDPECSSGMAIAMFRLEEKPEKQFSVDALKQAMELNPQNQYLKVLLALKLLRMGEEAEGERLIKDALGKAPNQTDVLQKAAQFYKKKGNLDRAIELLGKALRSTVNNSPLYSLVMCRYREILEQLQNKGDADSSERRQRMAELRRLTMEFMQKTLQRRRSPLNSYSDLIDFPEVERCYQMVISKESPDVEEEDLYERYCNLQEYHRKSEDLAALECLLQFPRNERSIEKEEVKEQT
# UniProt Q61599: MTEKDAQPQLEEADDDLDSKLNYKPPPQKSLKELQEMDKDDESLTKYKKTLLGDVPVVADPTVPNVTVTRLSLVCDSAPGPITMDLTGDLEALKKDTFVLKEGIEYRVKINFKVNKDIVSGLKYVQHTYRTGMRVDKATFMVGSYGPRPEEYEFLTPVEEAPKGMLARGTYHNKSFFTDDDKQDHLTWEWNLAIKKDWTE
# UniProt Q62426: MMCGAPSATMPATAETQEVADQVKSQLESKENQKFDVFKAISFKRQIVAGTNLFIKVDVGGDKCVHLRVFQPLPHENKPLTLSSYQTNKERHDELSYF
# UniProt Q64127: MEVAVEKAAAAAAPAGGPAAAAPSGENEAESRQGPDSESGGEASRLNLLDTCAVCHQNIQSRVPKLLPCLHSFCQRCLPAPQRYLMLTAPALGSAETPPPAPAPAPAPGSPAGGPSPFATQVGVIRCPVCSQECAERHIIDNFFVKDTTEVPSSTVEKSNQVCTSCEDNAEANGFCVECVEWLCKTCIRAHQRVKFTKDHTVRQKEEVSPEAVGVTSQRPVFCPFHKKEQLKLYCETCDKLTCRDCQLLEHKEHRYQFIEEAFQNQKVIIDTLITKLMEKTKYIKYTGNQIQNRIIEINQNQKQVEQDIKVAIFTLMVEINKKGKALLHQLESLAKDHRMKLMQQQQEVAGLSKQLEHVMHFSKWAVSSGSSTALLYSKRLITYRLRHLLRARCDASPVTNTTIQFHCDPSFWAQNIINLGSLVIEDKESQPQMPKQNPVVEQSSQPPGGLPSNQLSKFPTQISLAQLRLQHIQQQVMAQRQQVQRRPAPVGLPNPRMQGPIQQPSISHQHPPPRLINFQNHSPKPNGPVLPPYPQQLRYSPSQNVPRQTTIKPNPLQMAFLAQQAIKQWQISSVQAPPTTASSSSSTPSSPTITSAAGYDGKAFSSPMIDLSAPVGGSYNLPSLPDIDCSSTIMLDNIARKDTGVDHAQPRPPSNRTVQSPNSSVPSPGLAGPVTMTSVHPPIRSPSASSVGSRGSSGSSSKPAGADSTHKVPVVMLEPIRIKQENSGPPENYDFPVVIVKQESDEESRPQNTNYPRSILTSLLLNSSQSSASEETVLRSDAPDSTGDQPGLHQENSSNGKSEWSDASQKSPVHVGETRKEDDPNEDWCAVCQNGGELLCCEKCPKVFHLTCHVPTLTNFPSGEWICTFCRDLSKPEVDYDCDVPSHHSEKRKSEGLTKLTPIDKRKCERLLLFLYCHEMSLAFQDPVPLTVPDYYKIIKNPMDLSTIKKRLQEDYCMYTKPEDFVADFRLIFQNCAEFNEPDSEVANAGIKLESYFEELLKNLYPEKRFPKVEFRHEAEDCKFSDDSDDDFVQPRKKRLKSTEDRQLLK
# UniProt Q62394: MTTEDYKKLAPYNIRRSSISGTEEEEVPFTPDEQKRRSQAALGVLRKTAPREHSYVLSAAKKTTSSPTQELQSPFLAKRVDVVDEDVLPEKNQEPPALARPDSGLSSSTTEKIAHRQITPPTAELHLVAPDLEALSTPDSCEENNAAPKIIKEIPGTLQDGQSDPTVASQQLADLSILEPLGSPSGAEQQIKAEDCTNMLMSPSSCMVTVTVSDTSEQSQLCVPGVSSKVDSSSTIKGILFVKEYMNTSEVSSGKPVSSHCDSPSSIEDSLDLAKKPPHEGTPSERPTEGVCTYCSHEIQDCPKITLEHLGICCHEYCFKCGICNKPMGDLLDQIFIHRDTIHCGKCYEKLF
# UniProt Q61337: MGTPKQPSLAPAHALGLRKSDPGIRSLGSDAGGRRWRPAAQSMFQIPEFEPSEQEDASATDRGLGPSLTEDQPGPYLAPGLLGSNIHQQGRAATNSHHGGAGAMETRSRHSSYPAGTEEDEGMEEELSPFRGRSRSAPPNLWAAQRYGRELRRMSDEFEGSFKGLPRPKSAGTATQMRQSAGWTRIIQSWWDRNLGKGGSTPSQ
# UniProt Q69ZL1: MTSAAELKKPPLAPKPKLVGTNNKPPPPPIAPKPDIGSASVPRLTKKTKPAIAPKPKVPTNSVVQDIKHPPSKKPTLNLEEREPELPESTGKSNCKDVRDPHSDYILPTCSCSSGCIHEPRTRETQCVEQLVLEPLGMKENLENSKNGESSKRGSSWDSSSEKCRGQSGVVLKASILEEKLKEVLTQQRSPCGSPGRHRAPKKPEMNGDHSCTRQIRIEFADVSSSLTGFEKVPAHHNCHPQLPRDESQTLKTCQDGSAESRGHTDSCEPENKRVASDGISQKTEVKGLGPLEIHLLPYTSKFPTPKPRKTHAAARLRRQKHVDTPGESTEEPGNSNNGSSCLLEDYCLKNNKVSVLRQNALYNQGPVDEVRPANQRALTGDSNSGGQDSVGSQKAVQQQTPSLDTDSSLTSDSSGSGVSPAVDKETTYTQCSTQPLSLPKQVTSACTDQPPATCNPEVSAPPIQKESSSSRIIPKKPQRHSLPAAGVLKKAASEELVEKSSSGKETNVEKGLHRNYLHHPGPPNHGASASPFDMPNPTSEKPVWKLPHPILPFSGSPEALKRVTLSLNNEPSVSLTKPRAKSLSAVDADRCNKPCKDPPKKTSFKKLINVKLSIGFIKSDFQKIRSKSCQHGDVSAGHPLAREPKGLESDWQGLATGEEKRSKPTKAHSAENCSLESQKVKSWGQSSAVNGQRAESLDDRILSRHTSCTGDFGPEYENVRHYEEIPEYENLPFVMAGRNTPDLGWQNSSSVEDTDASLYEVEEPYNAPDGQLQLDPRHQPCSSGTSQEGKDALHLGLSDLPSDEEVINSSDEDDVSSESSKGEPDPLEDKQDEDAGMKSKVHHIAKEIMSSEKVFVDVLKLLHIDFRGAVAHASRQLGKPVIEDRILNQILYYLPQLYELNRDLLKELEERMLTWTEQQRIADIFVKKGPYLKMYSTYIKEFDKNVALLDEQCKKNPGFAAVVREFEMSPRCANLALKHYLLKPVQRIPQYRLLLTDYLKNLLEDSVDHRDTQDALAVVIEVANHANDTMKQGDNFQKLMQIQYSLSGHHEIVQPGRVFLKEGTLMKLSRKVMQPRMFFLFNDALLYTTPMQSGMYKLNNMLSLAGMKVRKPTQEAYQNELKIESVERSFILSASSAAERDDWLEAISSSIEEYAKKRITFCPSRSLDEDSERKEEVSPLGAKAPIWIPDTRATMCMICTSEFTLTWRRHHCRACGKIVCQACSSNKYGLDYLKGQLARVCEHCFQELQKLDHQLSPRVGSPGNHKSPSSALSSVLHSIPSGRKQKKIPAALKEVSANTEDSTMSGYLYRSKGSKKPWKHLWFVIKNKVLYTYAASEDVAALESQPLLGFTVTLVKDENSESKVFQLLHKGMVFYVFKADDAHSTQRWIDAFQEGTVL
# UniProt Q62348: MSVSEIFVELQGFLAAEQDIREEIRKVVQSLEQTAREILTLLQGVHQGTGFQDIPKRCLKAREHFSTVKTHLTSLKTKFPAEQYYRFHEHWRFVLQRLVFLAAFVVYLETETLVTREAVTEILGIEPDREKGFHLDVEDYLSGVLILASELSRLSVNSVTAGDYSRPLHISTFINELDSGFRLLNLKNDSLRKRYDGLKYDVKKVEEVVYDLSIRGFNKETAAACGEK
# UniProt Q69ZF8: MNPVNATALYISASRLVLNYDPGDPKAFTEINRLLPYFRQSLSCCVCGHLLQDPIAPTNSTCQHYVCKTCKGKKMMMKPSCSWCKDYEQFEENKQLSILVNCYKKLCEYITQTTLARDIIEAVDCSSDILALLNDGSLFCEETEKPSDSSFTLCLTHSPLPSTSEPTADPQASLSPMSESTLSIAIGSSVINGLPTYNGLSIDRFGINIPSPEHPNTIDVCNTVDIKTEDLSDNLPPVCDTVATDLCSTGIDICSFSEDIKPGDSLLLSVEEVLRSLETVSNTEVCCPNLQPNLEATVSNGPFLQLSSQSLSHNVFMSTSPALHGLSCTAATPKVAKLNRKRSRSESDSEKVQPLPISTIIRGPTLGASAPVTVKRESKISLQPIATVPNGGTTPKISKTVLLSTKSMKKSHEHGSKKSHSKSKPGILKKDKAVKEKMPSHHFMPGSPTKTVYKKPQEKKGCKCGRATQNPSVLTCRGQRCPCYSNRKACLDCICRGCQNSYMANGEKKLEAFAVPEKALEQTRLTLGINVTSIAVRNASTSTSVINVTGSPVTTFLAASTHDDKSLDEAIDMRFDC
# UniProt Q62000: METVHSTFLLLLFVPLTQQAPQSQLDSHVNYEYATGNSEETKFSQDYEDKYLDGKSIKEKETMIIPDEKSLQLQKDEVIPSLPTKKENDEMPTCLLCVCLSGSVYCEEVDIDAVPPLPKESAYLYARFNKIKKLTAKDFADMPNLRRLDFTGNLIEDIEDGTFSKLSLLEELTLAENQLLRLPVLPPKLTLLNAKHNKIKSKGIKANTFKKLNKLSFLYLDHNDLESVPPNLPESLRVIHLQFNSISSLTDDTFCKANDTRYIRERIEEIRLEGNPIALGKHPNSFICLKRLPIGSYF
# UniProt Q69ZC8: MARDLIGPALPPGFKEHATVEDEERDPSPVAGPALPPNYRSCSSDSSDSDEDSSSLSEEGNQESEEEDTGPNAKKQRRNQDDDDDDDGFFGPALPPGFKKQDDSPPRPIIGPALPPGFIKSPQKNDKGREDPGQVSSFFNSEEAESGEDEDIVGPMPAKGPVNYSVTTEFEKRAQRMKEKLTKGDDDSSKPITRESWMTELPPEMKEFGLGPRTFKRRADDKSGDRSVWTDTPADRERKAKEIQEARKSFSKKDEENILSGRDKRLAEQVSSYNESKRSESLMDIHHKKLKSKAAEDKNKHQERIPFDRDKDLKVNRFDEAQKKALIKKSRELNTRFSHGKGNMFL
# UniProt Q61469: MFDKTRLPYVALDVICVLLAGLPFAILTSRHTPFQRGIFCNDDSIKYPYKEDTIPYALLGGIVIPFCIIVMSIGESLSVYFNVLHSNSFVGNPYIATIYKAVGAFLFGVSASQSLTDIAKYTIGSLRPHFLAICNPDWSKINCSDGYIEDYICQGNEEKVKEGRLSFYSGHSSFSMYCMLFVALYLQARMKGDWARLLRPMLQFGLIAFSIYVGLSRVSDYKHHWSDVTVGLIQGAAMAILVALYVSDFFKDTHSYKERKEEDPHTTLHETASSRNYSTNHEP
# UniProt Q64105: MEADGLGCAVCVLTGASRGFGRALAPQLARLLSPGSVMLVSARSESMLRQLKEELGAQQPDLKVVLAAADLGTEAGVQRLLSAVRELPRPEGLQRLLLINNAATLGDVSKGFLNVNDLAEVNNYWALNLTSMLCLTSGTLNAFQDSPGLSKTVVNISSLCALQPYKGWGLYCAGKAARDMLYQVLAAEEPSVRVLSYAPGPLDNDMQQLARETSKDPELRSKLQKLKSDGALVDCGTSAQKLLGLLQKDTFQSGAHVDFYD
# The list shows a part of the results. Small differences around the control level are noise.
# Compound: CN[C@@H]1C[C@H]2O[C@@](C)([C@@H]1OC)n1c3ccccc3c3c4c(c5c6ccccc6n2c5c31)C(=O)NC4 [staurosporine]
# Assay: log2 fold change of tryptic peptide abundance, ligand vs vehicle (limited proteolysis) (log2 ratio); higher = more trypsin-susceptible (destabilized)
# Details: ligand concentration: 20 uM; sample: mouse liver crude lysate; replicate design: treated separately
row,Target,log2 fold change
1,"UniProt Q61542 (peptide sequence: RPGDLACDLER, peptide start residue: 4)",0.126
2,"UniProt Q61990 (peptide sequence: IANPVEGSTDR, peptide start residue: 320)",0.056
3,"UniProt Q64345 (peptide sequence: SIEKEEVK, peptide start residue: 393)",-0.275
4,"UniProt Q61599 (peptide sequence: ELQEMDKDDESLTKYK, peptide start residue: 33)",-0.147
5,"UniProt Q62426 (peptide sequence: QIVAGTNLFIK, peptide start residue: 46)",0.0978
6,"UniProt Q64127 (peptide sequence: LLPCLHSFCQR, peptide start residue: 66)",0.187
7,"UniProt Q64092 (peptide sequence: YHLQQAR, peptide start residue: 188)",-0.164
8,"UniProt Q64512 (peptide sequence: VAAFPHEAPR, peptide start residue: 1667)",-0.279
9,"UniProt Q62394 (peptide sequence: SQAALGVLR, peptide start residue: 38)",0.248
10,"UniProt Q61337 (peptide sequence: AATNSHHGGAGAMETR, peptide start residue: 92)",-0.0853
11,"UniProt Q69ZL1 (peptide sequence: GLESDWQGLATGEEKR, peptide start residue: 647)",-0.554
12,"UniProt Q61329 (peptide sequence: QLMAQQELDR, peptide start residue: 3082)",-0.51
13,"UniProt Q61526 (peptide sequence: CWMIDENIRPTFK, peptide start residue: 945)",-0.477
14,"UniProt Q62348 (peptide sequence: EAVTEILGIEPDREK, peptide start residue: 117)",-0.228
15,"UniProt Q64337 (peptide sequence: HGHFGWPGWEMGPPGNWSPRPPR, peptide start residue: 190)",-0.501
16,"UniProt Q69ZF8 (peptide sequence: MPSHHFMPGSPTK, peptide start residue: 438)",-0.394
17,"UniProt Q64735 (peptide sequence: EVGIHLNYKEDSCVR, peptide start residue: 443)",-0.263
18,"UniProt Q62440 (peptide sequence: SPMVGFDPPPHMR, peptide start residue: 416)",-0.216
19,"UniProt Q64282 (peptide sequence: SLATWGNCAWLHYHR, peptide start residue: 91)",0.365
20,"UniProt Q62000 (peptide sequence: DFADMPNLR, peptide start residue: 138)",-0.297
21,"UniProt Q62219 (peptide sequence: VQNHLPASGPPQPPAASPTR, peptide start residue: 170)",-0.175
22,"UniProt Q69ZC8 (peptide sequence: IPFDRDKDLK, peptide start residue: 305)",0.569
23,"UniProt Q61881 (peptide sequence: YGTQLVHLAHR, peptide start residue: 33)",0.282
24,"UniProt Q69ZI1 (peptide sequence: AQGSTVVNCGSK, peptide start residue: 99)",0.319
25,"UniProt Q62311 (peptide sequence: LSNTVLPSESMK, peptide start residue: 9)",0.548
26,"UniProt Q61469 (peptide sequence: NYSTNHEP, peptide start residue: 276)",-0.0913
27,"UniProt Q69ZK6 (peptide sequence: SVVSQAVAQAK, peptide start residue: 1247)",0.566
28,"UniProt Q64105 (peptide sequence: EELGAQQPDLK, peptide start residue: 53)",-0.412

# Some of the entries so far, with bars between the fields.
row | Target | log2 fold change
7 | UniProt Q64092 (peptide sequence: YHLQQAR, peptide start residue: 188) | -0.164
8 | UniProt Q64512 (peptide sequence: VAAFPHEAPR, peptide start residue: 1667) | -0.279
